Data on three molecules can be found in PMC4974783.

Experiment [1] deals with FLAG-tagged ΔCDCP1, deletion mutant that mimics the cleaved form of CDCP1. Description: co-IP + pull-down; sequential affinity purification, anti-FLAG agarose followed by glutathione-agarose, from MDA-MB-231 or T47D cells stably expressing E-cad-GST and transduced with ΔCDCP1-FLAG adenovirus; immunoblot. Background: A western blot detects proteins with antibodies after separation by electrophoresis.

Experiment [2] has the same target. Description: co-IP; anti-FLAG agarose from MDA-MB-231-derived E-cadherin-GST lines with or without γ-catenin coexpression, transduced with ΔCDCP1-FLAG adenovirus; immunoblot.
Experiment [3] shares this target. As to the kind of experiment: co-IP; anti-FLAG agarose from MDA-MB-231 or T47D cells transduced with adenoviral vectors, immunoblot.
For experiment [4] the target is unchanged. As to the kind of experiment: co-IP; anti-FLAG agarose from AsPC1 or PANC1 pancreatic cancer cells transduced with adenoviral vectors, immunoblot; AsPC1 also extracted with 1 % Triton X100, IGE-PAL, CHAPS, sodium deoxycholate, Brij 35 or sodium dodecylsulfate.

Results are given in words; binding and its absence hold for the method and conditions named. Binding seen in cells or lysates may run through a third protein. For some assays here: A result given as binding can be weak or reduced; the word gives no strength.

B1: p120 catenin (protein, UniProt O60716 1-968)
chain: MDDSEVESTASILASVKEQEAQFEKLTRALEEERRHVSAQLERVRVSPQDANPLMANGTLTRRHQNGRFVGDADLERQKFSDLKLNGPQDHSHLLYSTIPRMQEPGQIVETYTEEDPEGAMSVVSVETSDDGTTRRTETTVKKVVKTVTTRTVQPVAMGPDGLPVDASSVSNNYIQTLGRDFRKNGNGGPGPYVGQAGTATLPRNFHYPPDGYSRHYEDGYPGGSDNYGSLSRVTRIEERYRPSMEGYRAPSRQDVYGPQPQVRVGGSSVDLHRFHPEPYGLEDDQRSMGYDDLDYGMMSDYGTARRTGTPSDPRRRLRSYEDMIGEEVPSDQYYWAPLAQHERGSLASLDSLRKGGPPPPNWRQPELPEVIAMLGFRLDAVKSNAAAYLQHLCYRNDKVKTDVRKLKGIPVLVGLLDHPKKEVHLGACGALKNISFGRDQDNKIAIKNCDGVPALVRLLRKARDMDLTEVITGTLWNLSSHDSIKMEIVDHALHALTDEVIIPHSGWEREPNEDCKPRHIEWESVLTNTAGCLRNVSSERSEARRKLRECDGLVDALIFIVQAEIGQKDSDSKLVENCVCLLRNLSYQVHREIPQAERYQEAAPNVANNTGPHAASCFGAKKGKDEWFSRGKKPIEDPANDTVDFPKRTSPARGYELLFQPEVVRIYISLLKESKTPAILEASAGAIQNLCAGRWTYGRYIRSALRQEKALSAIADLLTNEHERVVKAASGALRNLAVDARNKELIGKHAIPNLVKNLPGGQQNSSWNFSEDTVISILNTINEVIAENLEAAKKLRETQGIEKLVLINKSGNRSEKEVRAAALVLQTIWGYKELRKPLEKEGWKKSDFQVNLNNASRSQSSHSYDDSTLPLIDRNQKSDKKPDREEIQMSNMGSNTKSLDNNYSTPNERGDHNRTLDRSGDLGDMEPLKGTTPLMQDEGQESLEEELDVLVLDDEGGQVSYPSMQKI
B1: the binding result in experiment [1] was “no binding”.

B2: γ-catenin, endogenous (protein, UniProt P14923 1-745)
chain: MEVMNLMEQPIKVTEWQQTYTYDSGIHSGANTCVPSVSSKGIMEEDEACGRQYTLKKTTTYTQGVPPSQGDLEYQMSTTARAKRVREAMCPGVSGEDSSLLLATQVEGQATNLQRLAEPSQLLKSAIVHLINYQDDAELATRALPELTKLLNDEDPVVVTKAAMIVNQLSKKEASRRALMGSPQLVAAVVRTMQNTSDLDTARCTTSILHNLSHHREGLLAIFKSGGIPALVRMLSSPVESVLFYAITTLHNLLLYQEGAKMAVRLADGLQKMVPLLNKNNPKFLAITTDCLQLLAYGNQESKLIILANGGPQALVQIMRNYSYEKLLWTTSRVLKVLSVCPSNKPAIVEAGGMQALGKHLTSNSPRLVQNCLWTLRNLSDVATKQEGLESVLKILVNQLSVDDVNVLTCATGTLSNLTCNNSKNKTLVTQNSGVEALIHAILRAGDKDDITEPAVCALRHLTSRHPEAEMAQNSVRLNYGIPAIVKLLNQPNQWPLVKATIGLIRNLALCPANHAPLQEAAVIPRLVQLLVKAHQDAQRHVAAGTQQPYTDGVRMEEIVEGCTGALHILARDPMNRMEIFRLNTIPLFVQLLYSSVENIQRVAAGVLCELAQDKEAADAIDAEGASAPLMELLHSRNEGTATYAAAVLFRISEDKNPDYRKRVSVELTNSLFKHDPAAWEAAQSMIPINEPYGDDMDATYRPMYSSDVPLDPLEMHMDMDGDYPIDTYSDGLRPPYPTADHMLA
In the case of B2, the binding result in experiment [2], in experiment [3] and in experiment [4] was “binds” throughout.

B3: γ-catenin, overexpressed (protein, UniProt P14923 1-745)
chain: MEVMNLMEQPIKVTEWQQTYTYDSGIHSGANTCVPSVSSKGIMEEDEACGRQYTLKKTTTYTQGVPPSQGDLEYQMSTTARAKRVREAMCPGVSGEDSSLLLATQVEGQATNLQRLAEPSQLLKSAIVHLINYQDDAELATRALPELTKLLNDEDPVVVTKAAMIVNQLSKKEASRRALMGSPQLVAAVVRTMQNTSDLDTARCTTSILHNLSHHREGLLAIFKSGGIPALVRMLSSPVESVLFYAITTLHNLLLYQEGAKMAVRLADGLQKMVPLLNKNNPKFLAITTDCLQLLAYGNQESKLIILANGGPQALVQIMRNYSYEKLLWTTSRVLKVLSVCPSNKPAIVEAGGMQALGKHLTSNSPRLVQNCLWTLRNLSDVATKQEGLESVLKILVNQLSVDDVNVLTCATGTLSNLTCNNSKNKTLVTQNSGVEALIHAILRAGDKDDITEPAVCALRHLTSRHPEAEMAQNSVRLNYGIPAIVKLLNQPNQWPLVKATIGLIRNLALCPANHAPLQEAAVIPRLVQLLVKAHQDAQRHVAAGTQQPYTDGVRMEEIVEGCTGALHILARDPMNRMEIFRLNTIPLFVQLLYSSVENIQRVAAGVLCELAQDKEAADAIDAEGASAPLMELLHSRNEGTATYAAAVLFRISEDKNPDYRKRVSVELTNSLFKHDPAAWEAAQSMIPINEPYGDDMDATYRPMYSSDVPLDPLEMHMDMDGDYPIDTYSDGLRPPYPTADHMLA
Take B3: the binding entry in experiment [2] is recorded as “binds”.
